# Measurements reported in paper PMC7819943, “Rice protein-binding microarrays: a tool to detect cis-acting elements near promoter regions in rice”.
# Chains of the proteins cited; added tags and fusions are not shown.
# UniProt Q0JBA9, entry or part of it: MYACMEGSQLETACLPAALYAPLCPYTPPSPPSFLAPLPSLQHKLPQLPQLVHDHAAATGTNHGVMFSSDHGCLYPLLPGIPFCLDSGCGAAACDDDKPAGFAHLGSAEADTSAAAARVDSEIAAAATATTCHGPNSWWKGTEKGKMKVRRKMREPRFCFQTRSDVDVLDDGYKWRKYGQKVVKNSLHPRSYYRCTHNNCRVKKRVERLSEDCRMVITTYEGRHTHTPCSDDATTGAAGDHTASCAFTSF
# The list shows a part of the results.
# Molecular target: OsWRKY34 (Oryza sativa, UniProt Q0JBA9 1-250)
# Experiment: protein-binding microarray (RPBM); PBS, 2% BSA, 51.3 ng/ul salmon testes DNA, 50 uM zinc acetate, 200 nM TF, 25 C, 1 h; high values mean tight binding
# Details: protein: recombinant; tags: N-terminal polyhistidine and DsRed monomer fusion (pET32a); label: CyDye5-dUTP incorporated in the synthesized complementary strand; 3' TTTTT single-stranded linker to array surface; dsDNA, one strand shown
# In short: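 Transcription factors were made in E. coli BL21-CodonPlus as N-terminal fusions to a polyhistidine tag and DsRed, then purified on Ni–NTA. After primer extension with Cy5-dUTP and blocking with 2% BSA, a custom Agilent array was exposed for 1 h at 25 °C to 200 nM protein in PBS, 2% BSA, salmon testes DNA and 50 µM zinc acetate. Washed arrays were scanned on an Axon 4000B, and the binding signal is per-feature fluorescence intensity in arbitrary units.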
row,Sequence,binding signal
1,GAGGAGGTGGGGAGGCGGCCATTCCCATGGCGCGTGGACGCGGAGTCACCTAGTGCAG,8310 fluorescence intensity (a.u.)
2,TCATCATCCTGACTGACCACCACAGTCTTGTTCATTTGTCCGGAGTCACCTAGTGCAG,8660 fluorescence intensity (a.u.)
3,ATGTTTCCAATAGGCTTTATCTCTTACTTATTTTTTTATGCGGAGTCACCTAGTGCAG,8630 fluorescence intensity (a.u.)
4,CTTGTTCATATTTTTTCAATTTTTTTCATAGTTATTTAGACGGAGTCACCTAGTGCAG,9310 fluorescence intensity (a.u.)
5,TCCAACCCTTTAATACTTCCCCGTTTCATTTCATTATAGCCGGAGTCACCTAGTGCAG,10300 fluorescence intensity (a.u.)
6,ACCTTACCTTACCTTACTGGGGAGGGGACCTTCTTAATTACGGAGTCACCTAGTGCAG,15800 fluorescence intensity (a.u.)
7,TCTACGTTTAATATTTCAAATGTGTGTCCGTGTACTTAAACGGAGTCACCTAGTGCAG,8990 fluorescence intensity (a.u.)
8,AGGTCAACAACCAGTGTCAAGATCTGACCATGCAATTAGCCGGAGTCACCTAGTGCAG,17600 fluorescence intensity (a.u.)
9,TCATTGGTCTTTACTCAGTTTTGGGTCGTCTCTTGCAGACCGGAGTCACCTAGTGCAG,9470 fluorescence intensity (a.u.)
10,GTCTCCTCGACCTCACCACCCGTCCATCCCTACCTACCTCCGGAGTCACCTAGTGCAG,11100 fluorescence intensity (a.u.)
11,TCAACTGTACTGTACTCCACTCGCCGCACACACTGACACACGGAGTCACCTAGTGCAG,11200 fluorescence intensity (a.u.)
12,GAGCGGGGAGGCGGCGGATCTAGGGTTTGGTTGGGTTTTTCGGAGTCACCTAGTGCAG,15300 fluorescence intensity (a.u.)
13,TTTGTGCATCCCACATGTCAGAGAAGACTCGTCCAGTTCCCGGAGTCACCTAGTGCAG,8520 fluorescence intensity (a.u.)
14,TTCAATCTGCCTCCTCTCGCTATATATCTCGCACCAGGCTCGGAGTCACCTAGTGCAG,8320 fluorescence intensity (a.u.)
15,CTCTCCCATCCTCTCCACCTCAATCCCTCTCGCCGCCATGCGGAGTCACCTAGTGCAG,8040 fluorescence intensity (a.u.)
16,ACCATATGACTTATATATCTGTCGTCAGCTCATTTCTATGCGGAGTCACCTAGTGCAG,9740 fluorescence intensity (a.u.)
17,TGCAATCCATATCCATTCCTCTTTGCAGGCCTCCTAGATCCGGAGTCACCTAGTGCAG,8360 fluorescence intensity (a.u.)
18,TAATAATTCCTAGTCTTTGGAGTGAACATGCTGGTTTTTACGGAGTCACCTAGTGCAG,8230 fluorescence intensity (a.u.)
19,GCTTCCGCTGCTGCGAGCGATCCGAGGGGCGGGGAGAAAACGGAGTCACCTAGTGCAG,8660 fluorescence intensity (a.u.)
20,ATTGTTGGTTTGCTTGTCCCGTCGATCTCATCTATTACTGCGGAGTCACCTAGTGCAG,8700 fluorescence intensity (a.u.)
21,CCACCTACCATATGGCGTTGGCCGTTGAAACATCCCCTGTCGGAGTCACCTAGTGCAG,8980 fluorescence intensity (a.u.)

# Random excerpt: two entries already listed, in no set order.
row,Sequence,binding signal
8,AGGTCAACAACCAGTGTCAAGATCTGACCATGCAATTAGCCGGAGTCACCTAGTGCAG,17600 fluorescence intensity (a.u.)
3,ATGTTTCCAATAGGCTTTATCTCTTACTTATTTTTTTATGCGGAGTCACCTAGTGCAG,8630 fluorescence intensity (a.u.)

# Carrying on.

row,Sequence,binding signal
1,CCCATCCATAATCTTGGACTAATTCGCGAGACGAATCTATCGGAGTCACCTAGTGCAG,8170 fluorescence intensity (a.u.)
2,TTTGTGGGTTTGGGGCTGACTAGATACAGTTGTCGTTTTGCGGAGTCACCTAGTGCAG,12100 fluorescence intensity (a.u.)
3,TGTGGTGCTTTTTTTTTTAGAGAATGGTATTTTTTTACATCGGAGTCACCTAGTGCAG,10400 fluorescence intensity (a.u.)
4,ACTGGGGTATGGAGGTGGTGCCAACATTTTAATTCTTCGTCGGAGTCACCTAGTGCAG,10500 fluorescence intensity (a.u.)
5,GGTTGTTGTTGATGTATGACAAGACTAGCTATTACCTATCCGGAGTCACCTAGTGCAG,8790 fluorescence intensity (a.u.)
6,CAGGTCCACCCTCAGGGCTTCCCCTACCTTGTCGTTCTCCCGGAGTCACCTAGTGCAG,12800 fluorescence intensity (a.u.)
7,GTTCTCCATGGACGCCTTGATCTGCTCCGGCTTGGTGTTCCGGAGTCACCTAGTGCAG,10800 fluorescence intensity (a.u.)
8,AACCGACCAGCGACCCCACGGCGTCATTCCGTTGGGCCCACGGAGTCACCTAGTGCAG,10000 fluorescence intensity (a.u.)
9,GCGTCCGCCATCGAATCCAACGAGCCAGCAAGTTTCATCACGGAGTCACCTAGTGCAG,8720 fluorescence intensity (a.u.)
10,TACTCTATATAATGTAATTGCACTAATATACTTTGTTTTCCGGAGTCACCTAGTGCAG,9760 fluorescence intensity (a.u.)
11,ACGCGCCCGTCCCTTCCCTCGCCGGTCCGCATGCCGCTGTCGGAGTCACCTAGTGCAG,8440 fluorescence intensity (a.u.)
12,ACTACCATGCTTCATATGATTGAGCGCGCTGCAATTTGCACGGAGTCACCTAGTGCAG,8110 fluorescence intensity (a.u.)
13,AGGTAACTGTATTCGTTTGTTCCCTTCAACGGCTCAATCCCGGAGTCACCTAGTGCAG,8240 fluorescence intensity (a.u.)
14,GACATAATAATCCGTGCATGTTTCCTAACTCTCAGATAATCGGAGTCACCTAGTGCAG,10000 fluorescence intensity (a.u.)
15,CAAACCACCACCACTTTCCACTCACTAAAAACATCACATCCGGAGTCACCTAGTGCAG,9020 fluorescence intensity (a.u.)
16,ACTCCAGCACCTTCTCGTCCATGATCCGCGGCGGCCCCAGCGGAGTCACCTAGTGCAG,9330 fluorescence intensity (a.u.)
17,CCCTCACTGGATTGGCTCTCATCTCATCGATCCTGCTCACCGGAGTCACCTAGTGCAG,8580 fluorescence intensity (a.u.)
18,GTGGAACGACCACCTCACGGCCCTTACCCGCCTTATCTTCCGGAGTCACCTAGTGCAG,10100 fluorescence intensity (a.u.)
19,CTATATCGCACGTACTCCGGTACCAACGATCCTATACCATCGGAGTCACCTAGTGCAG,9910 fluorescence intensity (a.u.)
20,AGCCTACACCAGTACACCACCATCTTCCTCGTTCGGTTCCCGGAGTCACCTAGTGCAG,13800 fluorescence intensity (a.u.)
21,TCTTCGCCTTCCGCCAGGAGCTCGTCTGCACGACGTTTTCCGGAGTCACCTAGTGCAG,10000 fluorescence intensity (a.u.)
